The data set in a line: Metabolomics of fetal brain at E14.5. The following applies: metabolite level in E14.5 fetal brain; for fold of change ABX/SPF: ANOVA contrast ABX/SPF; for fold of change GF/ABX: ANOVA contrast GF/ABX; for fold of change GF/SPF: ANOVA contrast GF/SPF; for fold of change GF/Sp: ANOVA contrast GF/Sp; for fold of change Sp/ABX: ANOVA contrast Sp/ABX; for fold of change Sp/SPF: ANOVA contrast Sp/SPF. The format is in vivo, C57Bl/6J mice.

For the molecule `NCC(O)CC[C@H](N)C(=O)O` (stereo partly drawn) [compound 102], the “fold of change ABX/SPF” value amounted to 0.79, the “fold of change GF/ABX” value was found to be 0.83, the “fold of change GF/SPF” value amounted to 0.66 and the “fold of change GF/Sp” value is given as 1.00. Also, the “fold of change Sp/ABX” value is 0.83 and the “fold of change Sp/SPF” value was found to be 0.66.
In the case of `NCC(CC[C@H](N)C(=O)O)OC1O[C@H](CO)[C@H](O)[C@H](O)[C@H]1O` (stereo partly drawn) [compound 103], the “fold of change ABX/SPF” value came to 0.77, the “fold of change GF/ABX” value was 1.06, the “fold of change GF/SPF” value came to 0.82 and the “fold of change GF/Sp” value came to 0.99. For the same molecule, the “fold of change Sp/ABX” value was 1.07 and the “fold of change Sp/SPF” value is listed as 0.82.
On to `NC(CCCC(=O)O)C(=O)O` (stereo not drawn) [compound 105], for which the “fold of change ABX/SPF” value is reported as 1.05, the “fold of change GF/ABX” value was 1.02, the “fold of change GF/SPF” value is reported as 1.07 and the “fold of change GF/Sp” value is reported as 1.27. Also, the “fold of change Sp/ABX” value amounted to 0.80 and the “fold of change Sp/SPF” value is reported as 0.85.
Consider `O=C(O)CCCC(=O)C(=O)O` [compound 107], for which the “fold of change ABX/SPF” value is 1.09, the “fold of change GF/ABX” value was determined as 1.38, the “fold of change GF/SPF” value is 1.50 and the “fold of change GF/Sp” value was 1.49. The “fold of change Sp/ABX” value came out at 0.93 and the “fold of change Sp/SPF” value is 1.01.
`O=C(O)C1CCCCN1` (stereo not drawn) [compound 113]: the “fold of change ABX/SPF” value stood at 0.57, the “fold of change GF/ABX” value is reported as 0.83, the “fold of change GF/SPF” value was 0.47 and the “fold of change GF/Sp” value was 0.63. The “fold of change Sp/ABX” value amounted to 1.32 and the “fold of change Sp/SPF” value was 0.75.
`O=C1CCCC(C(=O)O)N1` (stereo not drawn) [compound 114]: the “fold of change ABX/SPF” value came out at 1.02, the “fold of change GF/ABX” value was found to be 1.66, the “fold of change GF/SPF” value was found to be 1.70 and the “fold of change GF/Sp” value amounted to 1.77. The “fold of change Sp/ABX” value was 0.94 and the “fold of change Sp/SPF” value was found to be 0.96.
With `NCCCCC(=O)O` [compound 117], the “fold of change ABX/SPF” value is 0.85, the “fold of change GF/ABX” value turned out to be 0.71, the “fold of change GF/SPF” value worked out at 0.60 and the “fold of change GF/Sp” value amounted to 0.62. Further, the “fold of change Sp/ABX” value is given as 1.16 and the “fold of change Sp/SPF” value is on record as 0.98.
For `C[N+](C)(C)CCCCC(=O)[O-]` [compound 119], the “fold of change ABX/SPF” value is reported as 0.09, the “fold of change GF/ABX” value was determined as 1.71, the “fold of change GF/SPF” value is on record as 0.16 and the “fold of change GF/Sp” value is given as 0.09. Moreover, the “fold of change Sp/ABX” value was determined as 19.45 and the “fold of change Sp/SPF” value was found to be 1.79.
Turning to `N[C@@H](Cc1ccccc1)C(=O)O` [compound 120], the “fold of change ABX/SPF” value was 0.82, the “fold of change GF/ABX” value is given as 0.96, the “fold of change GF/SPF” value came to 0.79 and the “fold of change GF/Sp” value is listed as 0.88. Also, the “fold of change Sp/ABX” value was 1.10 and the “fold of change Sp/SPF” value is 0.90.
With `CC(=O)N[C@@H](Cc1ccccc1)C(=O)O` [compound 121], the “fold of change ABX/SPF” value is given as 0.83, the “fold of change GF/ABX” value was 0.98, the “fold of change GF/SPF” value is given as 0.81 and the “fold of change GF/Sp” value is listed as 0.74. Further, the “fold of change Sp/ABX” value worked out at 1.31 and the “fold of change Sp/SPF” value came out at 1.09.
As for `CC(N[C@@H](Cc1ccccc1)C(=O)O)C(=O)O` (stereo partly drawn) [compound 122], the “fold of change ABX/SPF” value amounted to 0.79, the “fold of change GF/ABX” value stood at 1.03, the “fold of change GF/SPF” value is reported as 0.82 and the “fold of change GF/Sp” value is given as 0.87. In addition, the “fold of change Sp/ABX” value was 1.19 and the “fold of change Sp/SPF” value was found to be 0.95.
With `O=C(O)C(O)Cc1ccccc1` (stereo not drawn) [compound 126], the “fold of change ABX/SPF” value amounted to 0.60, the “fold of change GF/ABX” value came to 0.96, the “fold of change GF/SPF” value is recorded as 0.58 and the “fold of change GF/Sp” value is 0.79. Further, the “fold of change Sp/ABX” value worked out at 1.22 and the “fold of change Sp/SPF” value amounted to 0.73.
`N[C@@H](Cc1ccc(O)cc1)C(=O)O` [compound 137]: the “fold of change ABX/SPF” value is recorded as 0.89, the “fold of change GF/ABX” value was determined as 0.90, the “fold of change GF/SPF” value was 0.79 and the “fold of change GF/Sp” value is listed as 0.82. The “fold of change Sp/ABX” value was 1.10 and the “fold of change Sp/SPF” value stood at 0.97.
Regarding `CC(=O)N[C@@H](Cc1ccc(O)cc1)C(=O)O` [compound 138], the “fold of change ABX/SPF” value was determined as 0.75, the “fold of change GF/ABX” value was found to be 0.70, the “fold of change GF/SPF” value came to 0.52 and the “fold of change GF/Sp” value stood at 0.61. The “fold of change Sp/ABX” value stood at 1.14 and the “fold of change Sp/SPF” value is reported as 0.85.
For the molecule `O=C(O)C(O)Cc1ccc(O)cc1` (stereo not drawn) [compound 150], the “fold of change ABX/SPF” value is 0.81, the “fold of change GF/ABX” value worked out at 0.97, the “fold of change GF/SPF” value is 0.79 and the “fold of change GF/Sp” value was 0.78. The “fold of change Sp/ABX” value came to 1.24 and the “fold of change Sp/SPF” value was 1.01.
As to `O=S(=O)(O)Oc1ccccc1` [compound 154], the “fold of change ABX/SPF” value amounted to 0.44, the “fold of change GF/ABX” value worked out at 1.00, the “fold of change GF/SPF” value worked out at 0.44 and the “fold of change GF/Sp” value turned out to be 0.70. Besides, the “fold of change Sp/ABX” value is 1.43 and the “fold of change Sp/SPF” value worked out at 0.63.
For the molecule `NC(Cc1ccccc1O)C(=O)O` (stereo not drawn) [compound 180], the “fold of change ABX/SPF” value is reported as 0.95, the “fold of change GF/ABX” value was determined as 1.04, the “fold of change GF/SPF” value stood at 1.00 and the “fold of change GF/Sp” value is recorded as 1.09. In addition, the “fold of change Sp/ABX” value was determined as 0.96 and the “fold of change Sp/SPF” value amounted to 0.91.
Take `COc1ccc(C[C@H](N)C(=O)O)cc1` [compound 181]: the “fold of change ABX/SPF” value was determined as 0.91, the “fold of change GF/ABX” value came to 1.19, the “fold of change GF/SPF” value is 1.07 and the “fold of change GF/Sp” value was 1.22. The “fold of change Sp/ABX” value is reported as 0.97 and the “fold of change Sp/SPF” value turned out to be 0.88.
`O=CN[C@@H](Cc1ccccc1)C(=O)O` [compound 191]: the “fold of change ABX/SPF” value is 0.40, the “fold of change GF/ABX” value was found to be 1.90, the “fold of change GF/SPF” value is on record as 0.77 and the “fold of change GF/Sp” value stood at 0.79. Besides, the “fold of change Sp/ABX” value amounted to 2.41 and the “fold of change Sp/SPF” value was 0.98.
As to `N[C@@H](Cc1c([C@H]2O[C@H](CO)[C@@H](O)[C@H](O)[C@@H]2O)[nH]c2ccccc12)C(=O)O` [compound 217], the “fold of change ABX/SPF” value is given as 0.71, the “fold of change GF/ABX” value was found to be 1.03, the “fold of change GF/SPF” value is listed as 0.73 and the “fold of change GF/Sp” value stood at 0.93. Moreover, the “fold of change Sp/ABX” value is reported as 1.11 and the “fold of change Sp/SPF” value is 0.78.
Turning to `Nc1ccccc1C(=O)C[C@H](N)C(=O)O` [compound 221], the “fold of change ABX/SPF” value came to 0.86, the “fold of change GF/ABX” value is on record as 0.95, the “fold of change GF/SPF” value is 0.82 and the “fold of change GF/Sp” value was 0.89. The “fold of change Sp/ABX” value stood at 1.06 and the “fold of change Sp/SPF” value is recorded as 0.91.
Take `O=CNc1ccccc1C(=O)O` [compound 227]: the “fold of change ABX/SPF” value stood at 0.34, the “fold of change GF/ABX” value turned out to be 2.60, the “fold of change GF/SPF” value turned out to be 0.88 and the “fold of change GF/Sp” value stood at 1.04. The “fold of change Sp/ABX” value was 2.49 and the “fold of change Sp/SPF” value was determined as 0.85.
Take `O=C(O)C(O)Cc1c[nH]c2ccccc12` (stereo not drawn) [compound 241]: the “fold of change ABX/SPF” value is recorded as 0.48, the “fold of change GF/ABX” value is recorded as 1.24, the “fold of change GF/SPF” value is given as 0.59 and the “fold of change GF/Sp” value is listed as 0.80. The “fold of change Sp/ABX” value is 1.56 and the “fold of change Sp/SPF” value turned out to be 0.74.
In the case of `O=S(=O)(O)Oc1c[nH]c2ccccc12` [compound 254], the “fold of change ABX/SPF” value is on record as 0.31, the “fold of change GF/ABX” value amounted to 0.25, the “fold of change GF/SPF” value was determined as 0.08 and the “fold of change GF/Sp” value was determined as 0.14. In addition, the “fold of change Sp/ABX” value is recorded as 1.79 and the “fold of change Sp/SPF” value turned out to be 0.56.
In the case of `CC(C)C[C@H](NC(C)C(=O)O)C(=O)O` (stereo partly drawn) [compound 263], the “fold of change ABX/SPF” value turned out to be 0.78, the “fold of change GF/ABX” value came to 1.24, the “fold of change GF/SPF” value was determined as 0.97 and the “fold of change GF/Sp” value is reported as 1.05. Moreover, the “fold of change Sp/ABX” value is given as 1.18 and the “fold of change Sp/SPF” value turned out to be 0.92.
As for `CC(C)CC(=O)C(=O)O` [compound 265], the “fold of change ABX/SPF” value is on record as 1.28, the “fold of change GF/ABX” value was 0.98, the “fold of change GF/SPF” value is reported as 1.26 and the “fold of change GF/Sp” value was determined as 0.95. For the same molecule, the “fold of change Sp/ABX” value is 1.04 and the “fold of change Sp/SPF” value was 1.33.
On to `CC(C)CC(=O)OC(CC(=O)[O-])C[N+](C)(C)C` (stereo not drawn) [compound 273], for which the “fold of change ABX/SPF” value is 0.90, the “fold of change GF/ABX” value is given as 1.25, the “fold of change GF/SPF” value was 1.12 and the “fold of change GF/Sp” value is given as 1.18. Moreover, the “fold of change Sp/ABX” value came out at 1.05 and the “fold of change Sp/SPF” value is 0.95.
As to `CC(C)(O)CC(=O)O` [compound 280], the “fold of change ABX/SPF” value is recorded as 0.89, the “fold of change GF/ABX” value came to 0.90, the “fold of change GF/SPF” value is recorded as 0.80 and the “fold of change GF/Sp” value is on record as 1.11. Also, the “fold of change Sp/ABX” value came to 0.81 and the “fold of change Sp/SPF” value is listed as 0.72.

The record behind these values is patent US12491217B2, “Compositions and methods for promoting healthy neural development in an unborn baby” (The Regents of the University of California, priority 2019, dated 2025).
